The target in this assay is mouse PCSK9 (mouse) (UniProt Q80W65). The assay is described as follows: statement in the DELFIA example; biotinylated Fab used as detection reagent for mouse PCSK9.

Sequences of proteins named here, by UniProt entry; tags and fusion partners are left off. Residues count along the entry.
UniProt Q80W65, residues 35-694: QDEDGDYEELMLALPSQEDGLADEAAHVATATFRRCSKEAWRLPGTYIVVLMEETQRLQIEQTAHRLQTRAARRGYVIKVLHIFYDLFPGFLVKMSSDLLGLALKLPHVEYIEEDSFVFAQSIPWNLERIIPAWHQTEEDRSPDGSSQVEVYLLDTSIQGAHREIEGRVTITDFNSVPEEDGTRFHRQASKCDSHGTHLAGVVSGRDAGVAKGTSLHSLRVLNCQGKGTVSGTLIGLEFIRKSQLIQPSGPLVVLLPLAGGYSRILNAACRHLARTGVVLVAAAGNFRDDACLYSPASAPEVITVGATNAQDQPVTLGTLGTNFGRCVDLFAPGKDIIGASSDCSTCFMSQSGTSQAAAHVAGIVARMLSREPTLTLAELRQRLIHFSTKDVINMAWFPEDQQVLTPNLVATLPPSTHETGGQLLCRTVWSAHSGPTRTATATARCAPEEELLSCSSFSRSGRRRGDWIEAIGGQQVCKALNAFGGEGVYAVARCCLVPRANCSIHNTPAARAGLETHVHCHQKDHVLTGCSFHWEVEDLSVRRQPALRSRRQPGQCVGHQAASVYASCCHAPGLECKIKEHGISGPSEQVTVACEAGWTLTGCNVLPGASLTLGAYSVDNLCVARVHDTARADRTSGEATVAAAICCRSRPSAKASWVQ

Results are given in words; binding and its absence hold for the method and conditions named. Some entries that bind do so weakly or less than the wild type.

B1: anti-PCSK9 Fab 1A08 (2CX1A08 Fab, PCSK9_2_CX1_A08) (Fab, V domains shown)
VH: QVQLVQSGAEVKKPGESLKISCKGSGYSFSTYWIGWVRQMPGKGLEWMGIIDPGDSFTRYSPSFQGQVTISADKSISTAYLQWSSLKASDTAMYYCARGYHDEPYGFFDVWGQGTLVTVSS
VL: DIQMTQSPSSLSASVGDRVTITCRASQDISNYLTWYQQKPGKAPKLLIYAASSLQSGVPSRFSGSGSGTDFTLTISSLQPEDFATYYCFQFDNVPLTFGQGTKVEIKR
modifications: biotinylated (sites not given)
With B1, the binding result is reported as “binds”.

For the origin of these results see patent US20120208208A1.
